Experimental data published in US10543132B2, “Absorbent article with blood modifying agent” (UNICHARM CORPORATION, priority 2011, dated 2020).

Experiment: Absorbent body migration rate (Example 1)
Conditions: time after second dropping of horse EDTA blood; agent coated at about 5 g/m^2

Question: For Caprylic Acid Diglyceride, which “Absorber migration rate” value is on record?
Answer: 9 s

Question: For Isopropyl Citrate, which “Absorber migration rate” value is on record?
Answer: 5 s
